The target in experiment [1] is T1, Mcm10 (LexA fusion, wild type) (S. cerevisiae) (UniProt P32354).
T1 sequence: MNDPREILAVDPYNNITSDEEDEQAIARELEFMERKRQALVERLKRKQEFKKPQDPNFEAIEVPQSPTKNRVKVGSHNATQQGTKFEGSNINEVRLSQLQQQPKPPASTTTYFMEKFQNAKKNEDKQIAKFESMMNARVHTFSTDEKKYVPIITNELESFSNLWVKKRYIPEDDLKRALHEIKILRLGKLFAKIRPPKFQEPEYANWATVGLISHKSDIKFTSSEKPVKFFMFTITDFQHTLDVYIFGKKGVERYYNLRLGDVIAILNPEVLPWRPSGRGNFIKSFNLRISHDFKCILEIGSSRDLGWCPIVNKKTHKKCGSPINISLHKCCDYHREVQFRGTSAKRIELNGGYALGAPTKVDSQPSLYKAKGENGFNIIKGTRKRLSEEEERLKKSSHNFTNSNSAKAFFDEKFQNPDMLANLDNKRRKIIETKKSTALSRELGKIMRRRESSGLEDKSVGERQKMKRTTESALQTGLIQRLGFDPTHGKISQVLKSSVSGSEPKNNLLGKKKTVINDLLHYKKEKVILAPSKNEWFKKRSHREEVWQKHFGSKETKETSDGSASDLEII
Description: two-hybrid; yeast two-hybrid with pBTM116 (LexA) and pACT2 fusions; β-galactosidase activity in cell extracts, in triplicate from at least three clones.

Experiment [2] addresses T2, Mcm10-9Myc (endogenous Mcm10 tagged at the C-terminus) (S. cerevisiae (endogenous in W303-1a derived strains)) (UniProt P32354).
T2 sequence: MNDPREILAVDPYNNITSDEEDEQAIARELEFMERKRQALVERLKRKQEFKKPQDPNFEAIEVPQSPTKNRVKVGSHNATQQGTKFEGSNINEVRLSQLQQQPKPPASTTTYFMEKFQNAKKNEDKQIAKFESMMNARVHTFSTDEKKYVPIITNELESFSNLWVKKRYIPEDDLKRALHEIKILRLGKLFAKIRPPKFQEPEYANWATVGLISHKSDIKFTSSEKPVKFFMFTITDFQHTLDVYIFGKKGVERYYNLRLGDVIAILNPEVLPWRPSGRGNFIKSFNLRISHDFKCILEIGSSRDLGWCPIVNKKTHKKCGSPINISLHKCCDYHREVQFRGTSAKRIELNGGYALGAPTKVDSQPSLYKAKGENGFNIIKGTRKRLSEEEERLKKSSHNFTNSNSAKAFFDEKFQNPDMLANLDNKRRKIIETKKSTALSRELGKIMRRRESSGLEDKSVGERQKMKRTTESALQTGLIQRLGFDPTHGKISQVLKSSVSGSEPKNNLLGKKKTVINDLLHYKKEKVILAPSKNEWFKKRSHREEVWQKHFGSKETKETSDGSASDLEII
Description: co-IP; endogenously tagged proteins; DNase I-treated whole cell extracts of cultures treated with 200 mM HU or 100 J/m^2 UV; anti-c-Myc beads pull down Mcm10-9Myc, anti-HA blot.

Experiment [3] deals with T2, Mcm10-9Myc (endogenous Mcm10 tagged at the C-terminus) (S. cerevisiae (endogenous in W303-1a derived strains)). The experiment can be described thus: condition: only untreated, logarithmically growing cultures; co-IP; as a2, but untreated, logarithmically growing cultures.
Experiment [4] shares this target. Description: co-IP; as a2, but cultures treated with CPT or PLE.

These are yes or no findings as the source states them, for the method shown. For some assays here: In cells and extracts the contact can be indirect. Some results given as binding are weak or reduced against the parent protein; the word gives no strength. Where a sequence is shown, tags or fusion partners need not be part of it.

B1: Mcm10 (LexA fusion, wild type) (natural protein, S. cerevisiae, UniProt P32354 1-571, looked up)
chain: MNDPREILAVDPYNNITSDEEDEQAIARELEFMERKRQALVERLKRKQEFKKPQDPNFEAIEVPQSPTKNRVKVGSHNATQQGTKFEGSNINEVRLSQLQQQPKPPASTTTYFMEKFQNAKKNEDKQIAKFESMMNARVHTFSTDEKKYVPIITNELESFSNLWVKKRYIPEDDLKRALHEIKILRLGKLFAKIRPPKFQEPEYANWATVGLISHKSDIKFTSSEKPVKFFMFTITDFQHTLDVYIFGKKGVERYYNLRLGDVIAILNPEVLPWRPSGRGNFIKSFNLRISHDFKCILEIGSSRDLGWCPIVNKKTHKKCGSPINISLHKCCDYHREVQFRGTSAKRIELNGGYALGAPTKVDSQPSLYKAKGENGFNIIKGTRKRLSEEEERLKKSSHNFTNSNSAKAFFDEKFQNPDMLANLDNKRRKIIETKKSTALSRELGKIMRRRESSGLEDKSVGERQKMKRTTESALQTGLIQRLGFDPTHGKISQVLKSSVSGSEPKNNLLGKKKTVINDLLHYKKEKVILAPSKNEWFKKRSHREEVWQKHFGSKETKETSDGSASDLEII
notes: Mcm10, budding yeast, called full-length in the Co-IP with LexA-tagged constructs; also called LexA-tagged Mcm10; full-length Mcm10; source: yeast two-hybrid fusion (pBTM116); also overexpressed in yeast, in whole cell extract, for Co-IP
Regarding B1, the binding result in experiment [1] is “binds”.

B2: Mec3 L211A (pACT2 fusion) (protein, UniProt Q02574 1-474)
chain: MKLKLIVNGCEAPDDYKLLRTTINTVASLRKTAILRFNSERLTIISTPKSSLNSSNNGTILRGDTGQLWCTIPHDVFRLYTVISARELNTITMECNCDSLLSVFKRYDRVMNQGSSSNMTIKLQSMPEWNTNNGTLSGGTAGGVDTTSKPNPICALGITFEEIVHTSGPNDAIVMNGGVDEHNGLPTTVGTGNLLASNKVIMHSFKVPVKALFRAQDTRIQEPMINYIQLMMYKLPPISGEFGSAFHGFIRRVERYSNVNHIHLMGVKKKEHGNEGDDVELKIIVNELDWHLEICWNGPLDSVIQRQEGLTDNPSQNQHIDTDGRQEEGSLPIIEADKPMSSLYTNTRDREMEENIRYDEDLLRIEDSSIADTRGNIYTADTSGDTEFNDISVMVEKAEQESSSTHEVIIRCKDWKVCSKLYAAFEEVVLAISHDESCVFHCSLDRGSLEDSEDVEKPRERGQIIYYIARSKGL
As for B2, the binding entry in experiment [1] is “binds”.

B3: Mec3 L230A (pACT2 fusion) (protein, UniProt Q02574 1-474)
chain: MKLKLIVNGCEAPDDYKLLRTTINTVASLRKTAILRFNSERLTIISTPKSSLNSSNNGTILRGDTGQLWCTIPHDVFRLYTVISARELNTITMECNCDSLLSVFKRYDRVMNQGSSSNMTIKLQSMPEWNTNNGTLSGGTAGGVDTTSKPNPICALGITFEEIVHTSGPNDAIVMNGGVDEHNGLPTTVGTGNLLASNKVIMHSFKVPVKLLFRAQDTRIQEPMINYIQAMMYKLPPISGEFGSAFHGFIRRVERYSNVNHIHLMGVKKKEHGNEGDDVELKIIVNELDWHLEICWNGPLDSVIQRQEGLTDNPSQNQHIDTDGRQEEGSLPIIEADKPMSSLYTNTRDREMEENIRYDEDLLRIEDSSIADTRGNIYTADTSGDTEFNDISVMVEKAEQESSSTHEVIIRCKDWKVCSKLYAAFEEVVLAISHDESCVFHCSLDRGSLEDSEDVEKPRERGQIIYYIARSKGL
Turning to B3, the binding entry in experiment [1] is “binds”.

B4: Mec3 I225A (pACT2 fusion) (protein, UniProt Q02574 1-474)
chain: MKLKLIVNGCEAPDDYKLLRTTINTVASLRKTAILRFNSERLTIISTPKSSLNSSNNGTILRGDTGQLWCTIPHDVFRLYTVISARELNTITMECNCDSLLSVFKRYDRVMNQGSSSNMTIKLQSMPEWNTNNGTLSGGTAGGVDTTSKPNPICALGITFEEIVHTSGPNDAIVMNGGVDEHNGLPTTVGTGNLLASNKVIMHSFKVPVKLLFRAQDTRIQEPMANYIQLMMYKLPPISGEFGSAFHGFIRRVERYSNVNHIHLMGVKKKEHGNEGDDVELKIIVNELDWHLEICWNGPLDSVIQRQEGLTDNPSQNQHIDTDGRQEEGSLPIIEADKPMSSLYTNTRDREMEENIRYDEDLLRIEDSSIADTRGNIYTADTSGDTEFNDISVMVEKAEQESSSTHEVIIRCKDWKVCSKLYAAFEEVVLAISHDESCVFHCSLDRGSLEDSEDVEKPRERGQIIYYIARSKGL
Consider B4, for which the binding entry in experiment [1] is “binds”.

B5: Mec3-3HA (endogenous Mec3 tagged at the C-terminus) (protein, UniProt Q02574 1-474)
chain: MKLKLIVNGCEAPDDYKLLRTTINTVASLRKTAILRFNSERLTIISTPKSSLNSSNNGTILRGDTGQLWCTIPHDVFRLYTVISARELNTITMECNCDSLLSVFKRYDRVMNQGSSSNMTIKLQSMPEWNTNNGTLSGGTAGGVDTTSKPNPICALGITFEEIVHTSGPNDAIVMNGGVDEHNGLPTTVGTGNLLASNKVIMHSFKVPVKLLFRAQDTRIQEPMINYIQLMMYKLPPISGEFGSAFHGFIRRVERYSNVNHIHLMGVKKKEHGNEGDDVELKIIVNELDWHLEICWNGPLDSVIQRQEGLTDNPSQNQHIDTDGRQEEGSLPIIEADKPMSSLYTNTRDREMEENIRYDEDLLRIEDSSIADTRGNIYTADTSGDTEFNDISVMVEKAEQESSSTHEVIIRCKDWKVCSKLYAAFEEVVLAISHDESCVFHCSLDRGSLEDSEDVEKPRERGQIIYYIARSKGL
As for B5, the binding entry in experiment [2] was “binds weakly”; in experiment [3], “no binding”; in experiment [4], “no binding (condition: cultures treated with CPT or PLE)”.

B6: Mec3 I220A (pACT2 fusion) (protein, UniProt Q02574 1-474)
chain: MKLKLIVNGCEAPDDYKLLRTTINTVASLRKTAILRFNSERLTIISTPKSSLNSSNNGTILRGDTGQLWCTIPHDVFRLYTVISARELNTITMECNCDSLLSVFKRYDRVMNQGSSSNMTIKLQSMPEWNTNNGTLSGGTAGGVDTTSKPNPICALGITFEEIVHTSGPNDAIVMNGGVDEHNGLPTTVGTGNLLASNKVIMHSFKVPVKLLFRAQDTRAQEPMINYIQLMMYKLPPISGEFGSAFHGFIRRVERYSNVNHIHLMGVKKKEHGNEGDDVELKIIVNELDWHLEICWNGPLDSVIQRQEGLTDNPSQNQHIDTDGRQEEGSLPIIEADKPMSSLYTNTRDREMEENIRYDEDLLRIEDSSIADTRGNIYTADTSGDTEFNDISVMVEKAEQESSSTHEVIIRCKDWKVCSKLYAAFEEVVLAISHDESCVFHCSLDRGSLEDSEDVEKPRERGQIIYYIARSKGL
Take B6: the binding result in experiment [1] was “binds”.

B7: Mec3 Y227A (pACT2 fusion) (protein, UniProt Q02574 1-474)
chain: MKLKLIVNGCEAPDDYKLLRTTINTVASLRKTAILRFNSERLTIISTPKSSLNSSNNGTILRGDTGQLWCTIPHDVFRLYTVISARELNTITMECNCDSLLSVFKRYDRVMNQGSSSNMTIKLQSMPEWNTNNGTLSGGTAGGVDTTSKPNPICALGITFEEIVHTSGPNDAIVMNGGVDEHNGLPTTVGTGNLLASNKVIMHSFKVPVKLLFRAQDTRIQEPMINAIQLMMYKLPPISGEFGSAFHGFIRRVERYSNVNHIHLMGVKKKEHGNEGDDVELKIIVNELDWHLEICWNGPLDSVIQRQEGLTDNPSQNQHIDTDGRQEEGSLPIIEADKPMSSLYTNTRDREMEENIRYDEDLLRIEDSSIADTRGNIYTADTSGDTEFNDISVMVEKAEQESSSTHEVIIRCKDWKVCSKLYAAFEEVVLAISHDESCVFHCSLDRGSLEDSEDVEKPRERGQIIYYIARSKGL
In the case of B7, the binding entry in experiment [1] is “binds”.

B8: Mec3 L212A (pACT2 fusion) (protein, UniProt Q02574 1-474)
chain: MKLKLIVNGCEAPDDYKLLRTTINTVASLRKTAILRFNSERLTIISTPKSSLNSSNNGTILRGDTGQLWCTIPHDVFRLYTVISARELNTITMECNCDSLLSVFKRYDRVMNQGSSSNMTIKLQSMPEWNTNNGTLSGGTAGGVDTTSKPNPICALGITFEEIVHTSGPNDAIVMNGGVDEHNGLPTTVGTGNLLASNKVIMHSFKVPVKLAFRAQDTRIQEPMINYIQLMMYKLPPISGEFGSAFHGFIRRVERYSNVNHIHLMGVKKKEHGNEGDDVELKIIVNELDWHLEICWNGPLDSVIQRQEGLTDNPSQNQHIDTDGRQEEGSLPIIEADKPMSSLYTNTRDREMEENIRYDEDLLRIEDSSIADTRGNIYTADTSGDTEFNDISVMVEKAEQESSSTHEVIIRCKDWKVCSKLYAAFEEVVLAISHDESCVFHCSLDRGSLEDSEDVEKPRERGQIIYYIARSKGL
With B8, the binding result in experiment [1] is on record as “binds”.

B9: Rad17 (two-hybrid fusion) (protein, UniProt P48581 1-401)
chain: MRINSELANKFSASTVHLEHITTALSCLTPFGSKDDVLIFIDADGLSFVRENNHVIKIQLLLSRELFMSYSYRNETEDHMKLCVKINHILDSVSVMNRNSDDIVECTLSYDGHGSPFVLIFEDSFISERVEYSTYLIKDFDTNGLELDRERISFEAIIKGEALHSALKDLKEIGCKECYVYAKTEANDENVFALISKSQLGFSKIKLPSNRSILEKLQVFDGDSTTVIDGFAVIGFFDFTSFDKIRKSTKIASKVLFRMDVHGVLSVNILSQTDDVIITDTTRPSNNRPGSIRQLQLPKDYPGIVIEVCMLEKESIDEAAQTEIELLMETNELGNRNSFKKSTIRKRYGTDKGNETSNDNLLQLNGKKIKLPSEEENNKNRESEDEENHCKYPTKDIPIFF
B9: the binding entry in experiment [1] is “no binding”.

The values are drawn from PMC4117747, “The N-terminus of Mcm10 is important for interaction with the 9-1-1 clamp and in resistance to DNA damage” (Nucleic Acids Research, 2014).
